Measured values from PMC7819943, “Rice protein-binding microarrays: a tool to detect cis-acting elements near promoter regions in rice”.
This is one part of the list.

Protein sequences, listed by entry. Tags and fused reporters are not part of them.
UniProt Q0JBA9, entry or part of it: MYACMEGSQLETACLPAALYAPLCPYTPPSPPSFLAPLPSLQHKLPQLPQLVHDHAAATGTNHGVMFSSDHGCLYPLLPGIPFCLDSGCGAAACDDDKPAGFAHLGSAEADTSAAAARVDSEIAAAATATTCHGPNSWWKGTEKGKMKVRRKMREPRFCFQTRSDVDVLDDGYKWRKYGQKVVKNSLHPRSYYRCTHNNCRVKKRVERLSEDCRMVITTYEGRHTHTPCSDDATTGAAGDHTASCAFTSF

What follows are sequences tested against OsWRKY34 (Oryza sativa, UniProt Q0JBA9 1-250) (assay: protein-binding microarray (RPBM); PBS, 2% BSA, 51.3 ng/ul salmon testes DNA, 50 uM zinc acetate, 200 nM TF, 25 C, 1 h; high values mean tight binding). Details: protein: recombinant; tags: N-terminal polyhistidine and DsRed monomer fusion (pET32a); label: CyDye5-dUTP incorporated in the synthesized complementary strand; 3' TTTTT single-stranded linker to array surface; dsDNA, one strand shown.
Method in brief: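 Binding signal is defined as the fluorescence intensity of each feature in arbitrary units, read on an Axon 4000B scanner. Transcription factors with N-terminal polyhistidine and DsRed fusions came from E. coli BL21-CodonPlus and were purified on Ni–NTA. They were incubated at 200 nM for 1 h at 25 °C on a custom Agilent array that had been made double-stranded with Cy5-dUTP, with 50 µM zinc acetate present, and the array was washed.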

Sequence | binding signal
AATCCGTACATCCCAGCTCATCTTTCCACTCCGGGTTGCCCGGAGTCACCTAGTGCAG | 10300 fluorescence intensity (a.u.)
CTCTGCCTCTGCTTGCTCTGCTCTGTATCTGTGACCATCTCGGAGTCACCTAGTGCAG | 12500 fluorescence intensity (a.u.)
ATTACTGCTGCTTTGACCCCACCACCTCGTCAGTACAAACCGGAGTCACCTAGTGCAG | 12900 fluorescence intensity (a.u.)
GGTCCTATCTCATACCCAACACCCAACCCAACCCAACCCACGGAGTCACCTAGTGCAG | 9210 fluorescence intensity (a.u.)
TTGATCTGATGAACTCGGGGTCGGCGGCGTTCTTCGGTTTCGGAGTCACCTAGTGCAG | 9540 fluorescence intensity (a.u.)
AGTTATGCTAGCTCTGAATTCCTATTGCTTCTTCAGCTGACGGAGTCACCTAGTGCAG | 8690 fluorescence intensity (a.u.)
TTATTTCCTTGTTGTTTCGCTGAATTGTCAGTCAAAAGTACGGAGTCACCTAGTGCAG | 10600 fluorescence intensity (a.u.)
AGCTGATCATATGACTCTTTCTAATATCATCTCTCACAATCGGAGTCACCTAGTGCAG | 8910 fluorescence intensity (a.u.)
AGTAGTATGAGATTTGGCTGTTTGTTTGGGCATGCGTCCACGGAGTCACCTAGTGCAG | 9140 fluorescence intensity (a.u.)
CACCGCCGTCACTGCCATCCACCACCGGTCACCACCACACCGGAGTCACCTAGTGCAG | 8840 fluorescence intensity (a.u.)
CGGGTGTTGTTGTAAATGCGCGTGTGGTTTGCTTTTTTTTCGGAGTCACCTAGTGCAG | 10200 fluorescence intensity (a.u.)
ATGTCTGTTGTGGCCTATAATGGAGGTGTTATTTTTTCATCGGAGTCACCTAGTGCAG | 8070 fluorescence intensity (a.u.)
GTCATTGTTTGGAGTGGAGTTTTGCTTAGATTAATCTGTCCGGAGTCACCTAGTGCAG | 8860 fluorescence intensity (a.u.)
GGAAGCCCAAGCCAACCGCCTCGCGACTCCACCGCGTCTCCGGAGTCACCTAGTGCAG | 8490 fluorescence intensity (a.u.)
TCCATGTGACCACTGTAACACTGTCCTGTTTCCAACACCCCGGAGTCACCTAGTGCAG | 8030 fluorescence intensity (a.u.)
CCCATTGAATTAATTTCGGCGTACATACTGGTGCCTTTTCCGGAGTCACCTAGTGCAG | 8840 fluorescence intensity (a.u.)
CCCTTGTAGATCCGAAAATTTTCCCTAGTTTTTTTTTTTCCGGAGTCACCTAGTGCAG | 11200 fluorescence intensity (a.u.)
TTTTCCATTCTTGCGCTTCCAAGTATCGAGCCCCAACTTCCGGAGTCACCTAGTGCAG | 12400 fluorescence intensity (a.u.)
TTTTACTCCTTGTTTGTGCCTTTCTTTTCTTCTTTCCTTCCGGAGTCACCTAGTGCAG | 10000 fluorescence intensity (a.u.)
GCCTTTTCGCGGACCTTGGATTTGAGGGCGACTTCGGTTCCGGAGTCACCTAGTGCAG | 8080 fluorescence intensity (a.u.)
GTCAATATTGGGTGCTGAGTCTTTAACTTCTCATTTATCCCGGAGTCACCTAGTGCAG | 9450 fluorescence intensity (a.u.)

Sequence | binding signal
CGTCCTTTTTCTGTTGTCAAGAATCCAAGCTCTCTTCCTTCGGAGTCACCTAGTGCAG | 10700 fluorescence intensity (a.u.)
TTTCTTGACCGCCGCTGATTCCCTCAAAATTTCTGCATATCGGAGTCACCTAGTGCAG | 8490 fluorescence intensity (a.u.)
TTCTCTCCCTCCCGGCCGCCGCCCCGCCCCGCCCATCTTGCGGAGTCACCTAGTGCAG | 9110 fluorescence intensity (a.u.)
TGAGTTGTGCTTTCTATTTTATATCATTGGATGTTCTTAACGGAGTCACCTAGTGCAG | 10600 fluorescence intensity (a.u.)
ATTGGGTTCTTGGAGCTGTTGGATTGGGTTTTTTTGGGAGCGGAGTCACCTAGTGCAG | 9180 fluorescence intensity (a.u.)
AATCTCCTAATTATGTATTGCCCAAATCCATTTATTTTCCCGGAGTCACCTAGTGCAG | 9430 fluorescence intensity (a.u.)
GATGCAGCGGACGGGGCGGGAGGCGGCGGGGTCCGTCTGCCGGAGTCACCTAGTGCAG | 8420 fluorescence intensity (a.u.)
TTCTAAACCATTCTTGCCGGCACATGCATTCTTTATGACCCGGAGTCACCTAGTGCAG | 9350 fluorescence intensity (a.u.)
ACATACACTACAGCGGCGAACCTTTCCTTATTCTCGCAACCGGAGTCACCTAGTGCAG | 12100 fluorescence intensity (a.u.)
CTCGTTGGTGGTTCTCGCCTTGTTGTCGCTGTTCCCGTGCCGGAGTCACCTAGTGCAG | 8980 fluorescence intensity (a.u.)
CGTCCGCTCTCCGGTGCAAAGCGTACCGTTTGACCAATCGCGGAGTCACCTAGTGCAG | 10800 fluorescence intensity (a.u.)
GATCTATCTCAATCAACCCACGTGGCCTCACCTCGCCGGACGGAGTCACCTAGTGCAG | 8240 fluorescence intensity (a.u.)
CTCGCCTTTGATCTTATGCAGGGGCCTGACATAGCTTCTTCGGAGTCACCTAGTGCAG | 9470 fluorescence intensity (a.u.)
GATGCCATTTTTAAACAATTCCATGCCTTGTTTCCATTTCCGGAGTCACCTAGTGCAG | 13400 fluorescence intensity (a.u.)
CAATGATTCCGGTAGTCAAACTTTTACTATTTACACATCCCGGAGTCACCTAGTGCAG | 10000 fluorescence intensity (a.u.)
ATAGAATGTCGTATTTTTTGGATTTCTATAGGATTTTGAACGGAGTCACCTAGTGCAG | 10600 fluorescence intensity (a.u.)
TGGTAAGGTGACACCATGGCAGTACTGTTATAGCTTATCTCGGAGTCACCTAGTGCAG | 8390 fluorescence intensity (a.u.)
ATTTGATGACTCCTTTTTACCCTTTCCACTTTGCAGTTGCCGGAGTCACCTAGTGCAG | 11700 fluorescence intensity (a.u.)
CCACGTCTTTCCCCACGACCACGACCGTTCATTTCTTTCCCGGAGTCACCTAGTGCAG | 10400 fluorescence intensity (a.u.)
GTAACTTACTTTTTTGTTTCAGCCCCTGTAACTTTCCATTCGGAGTCACCTAGTGCAG | 9240 fluorescence intensity (a.u.)
CTAATTAGCACAGTTGCACACATGTTTTAGCCTTTTGGTCCGGAGTCACCTAGTGCAG | 10600 fluorescence intensity (a.u.)
